Source: article PMC2901339
No constants are given. Whether binding was seen depends on the method and setting. In cells and extracts the contact can be indirect. Some results given as binding are weak or reduced against the parent protein; the word gives no strength.

Chains of the proteins cited; added tags and fusions are not shown. Lines headed by an entry give the natural chain unless they say otherwise; changes in a name come on top. A line that says so, or that is headed by a name, gives the form on record, which may keep a tag or linker.
UniProt P84078: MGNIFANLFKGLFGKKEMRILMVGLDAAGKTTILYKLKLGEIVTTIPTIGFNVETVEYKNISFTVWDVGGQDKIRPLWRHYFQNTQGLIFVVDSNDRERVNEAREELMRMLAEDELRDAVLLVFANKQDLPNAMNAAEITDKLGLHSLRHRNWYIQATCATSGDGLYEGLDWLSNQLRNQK
UniProt Q9EPJ9: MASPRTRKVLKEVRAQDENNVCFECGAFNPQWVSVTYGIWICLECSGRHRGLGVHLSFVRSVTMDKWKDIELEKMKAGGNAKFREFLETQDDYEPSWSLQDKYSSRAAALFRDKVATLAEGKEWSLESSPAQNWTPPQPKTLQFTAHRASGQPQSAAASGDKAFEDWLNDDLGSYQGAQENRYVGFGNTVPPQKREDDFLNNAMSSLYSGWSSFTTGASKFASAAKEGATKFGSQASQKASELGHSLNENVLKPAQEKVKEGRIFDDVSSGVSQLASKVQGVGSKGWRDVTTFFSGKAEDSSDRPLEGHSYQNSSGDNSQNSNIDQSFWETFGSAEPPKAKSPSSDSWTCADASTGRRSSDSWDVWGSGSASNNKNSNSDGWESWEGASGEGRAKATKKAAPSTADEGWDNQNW
SERCA2a, endogenous, mouse heart (O55143-2, form named): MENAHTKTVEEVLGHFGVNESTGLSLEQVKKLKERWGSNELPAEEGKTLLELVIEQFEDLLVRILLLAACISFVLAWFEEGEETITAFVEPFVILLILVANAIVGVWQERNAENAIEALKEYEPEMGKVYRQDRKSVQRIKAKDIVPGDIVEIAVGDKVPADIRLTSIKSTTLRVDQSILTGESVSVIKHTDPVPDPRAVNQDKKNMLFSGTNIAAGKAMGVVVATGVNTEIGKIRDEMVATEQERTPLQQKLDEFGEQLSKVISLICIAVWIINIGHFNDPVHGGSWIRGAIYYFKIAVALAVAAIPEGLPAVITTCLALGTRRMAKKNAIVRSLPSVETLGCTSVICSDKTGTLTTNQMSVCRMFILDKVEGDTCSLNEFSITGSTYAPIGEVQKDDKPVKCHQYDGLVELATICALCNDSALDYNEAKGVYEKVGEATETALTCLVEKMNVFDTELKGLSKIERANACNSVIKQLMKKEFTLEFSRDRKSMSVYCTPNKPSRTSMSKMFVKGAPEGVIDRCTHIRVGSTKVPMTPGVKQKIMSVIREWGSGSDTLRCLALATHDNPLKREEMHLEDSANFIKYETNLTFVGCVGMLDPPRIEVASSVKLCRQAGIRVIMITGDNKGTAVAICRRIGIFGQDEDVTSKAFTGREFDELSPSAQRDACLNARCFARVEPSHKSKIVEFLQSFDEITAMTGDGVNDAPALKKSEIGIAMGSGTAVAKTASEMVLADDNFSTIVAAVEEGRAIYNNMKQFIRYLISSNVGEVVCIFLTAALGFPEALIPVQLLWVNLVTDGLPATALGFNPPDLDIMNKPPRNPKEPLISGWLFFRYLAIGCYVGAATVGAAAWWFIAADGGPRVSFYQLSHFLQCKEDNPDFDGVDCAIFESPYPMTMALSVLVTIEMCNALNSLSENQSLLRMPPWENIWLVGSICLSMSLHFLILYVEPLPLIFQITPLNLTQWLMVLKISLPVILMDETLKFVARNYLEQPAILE

target: T1, phospholamban (PLN), endogenous, mouse heart (mouse (endogenous in heart tissue)) (UniProt P61014); assay: co-IP; endogenous PLN precipitated from mouse cardiac muscle post nuclear extract with anti-PLN antibody 1D11 (Seize-X Protein A Immunoprecipitation Kit), western blot of the eluate; IgG beads alone as control
T1 sequence: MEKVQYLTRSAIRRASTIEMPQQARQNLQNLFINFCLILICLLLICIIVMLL

binding	Substance
binds	ARF1, endogenous, mouse heart (from UniProt P84078 1-181)
binds	ARFGAP1, endogenous, mouse heart (from UniProt Q9EPJ9 1-414)
binds	SERCA2a, endogenous, mouse heart (from UniProt O55143-2 1-998)
